Construct, isoform or probe ends are uncertain for at least one entry. Where cells or extracts were used, other partners may take part. Tags and fusion partners may be left off the protein sequences shown.
Target: T1, hnRNP H (U87 nuclear extract, identified by anti-hnRNP H IP) (UniProt P31943)
T1 sequence (looked up): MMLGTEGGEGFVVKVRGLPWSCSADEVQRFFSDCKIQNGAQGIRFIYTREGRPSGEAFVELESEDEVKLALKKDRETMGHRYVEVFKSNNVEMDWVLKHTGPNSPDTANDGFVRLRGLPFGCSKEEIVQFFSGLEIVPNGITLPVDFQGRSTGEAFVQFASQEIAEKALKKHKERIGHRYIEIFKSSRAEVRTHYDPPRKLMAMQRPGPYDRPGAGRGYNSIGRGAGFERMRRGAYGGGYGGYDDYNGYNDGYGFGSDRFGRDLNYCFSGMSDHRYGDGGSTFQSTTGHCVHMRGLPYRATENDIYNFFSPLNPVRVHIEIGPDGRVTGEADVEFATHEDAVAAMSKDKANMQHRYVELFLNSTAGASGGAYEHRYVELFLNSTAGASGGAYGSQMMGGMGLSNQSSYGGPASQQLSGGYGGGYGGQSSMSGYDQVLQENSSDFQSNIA
Assay: UV crosslinking + IP
Conditions: RNase treated, UV crosslinking: ~1 nM RNA in U87 nuclear extract, protein in an extract, residues 1-449

“GGGGCCGGGGCCGGGGCCGGGGCCGGGGCCGGGGCCGGGGCCGGGGCCGGGGCCGGGGCC [10R-7dG]”: binds (50 kDa species IPed, higher MW species not, all G replaced by 7-deaza-G (transcribed with 7-deaza-GTP), label: 32P-CTP).

“GGGGCCGGGGCCGGGGCCGGGGCCGGGGCCGGGGCCGGGGCCGGGGCCGGGGCCGGGGCC [10R-G7dG]”: binds (7-deaza-G with trace 32P-G, label: 32P-GTP).

“GGGGCCGGGGCCGGGGCCGGGGCCGGGGCCGGGGCCGGGGCCGGGGCCGGGGCCGGGGCC [10R-G]”: binds (label: 32P-GTP).
